Construct, isoform or probe ends are uncertain for at least one entry. For part of these data: Tags and fusion partners may be left off the protein sequences shown.
How the values were obtained:
Experiment in all cases: protein microarray
Settings in all cases: 10-fold cold unmethylated competitor; 5mC at CpG (SssI, both strands); recombinant protein; protein details: GST (N-terminal); label: Cy5
TGIF1 (Homo sapiens) = TGIF1 (Homo sapiens) (UniProt Q15583)
E2F3 (Homo sapiens) = E2F3 (Homo sapiens) (UniProt O00716)
HOXA5 (Homo sapiens) = HOXA5 (Homo sapiens) (UniProt P20719)
ZNF114 (Homo sapiens) = ZNF114 (Homo sapiens) (UniProt Q8NC26)
SCAPER (Homo sapiens) = target: T1, SCAPER (Homo sapiens) (UniProt Q9BY12)
T1 sequence (looked up, limits assumed): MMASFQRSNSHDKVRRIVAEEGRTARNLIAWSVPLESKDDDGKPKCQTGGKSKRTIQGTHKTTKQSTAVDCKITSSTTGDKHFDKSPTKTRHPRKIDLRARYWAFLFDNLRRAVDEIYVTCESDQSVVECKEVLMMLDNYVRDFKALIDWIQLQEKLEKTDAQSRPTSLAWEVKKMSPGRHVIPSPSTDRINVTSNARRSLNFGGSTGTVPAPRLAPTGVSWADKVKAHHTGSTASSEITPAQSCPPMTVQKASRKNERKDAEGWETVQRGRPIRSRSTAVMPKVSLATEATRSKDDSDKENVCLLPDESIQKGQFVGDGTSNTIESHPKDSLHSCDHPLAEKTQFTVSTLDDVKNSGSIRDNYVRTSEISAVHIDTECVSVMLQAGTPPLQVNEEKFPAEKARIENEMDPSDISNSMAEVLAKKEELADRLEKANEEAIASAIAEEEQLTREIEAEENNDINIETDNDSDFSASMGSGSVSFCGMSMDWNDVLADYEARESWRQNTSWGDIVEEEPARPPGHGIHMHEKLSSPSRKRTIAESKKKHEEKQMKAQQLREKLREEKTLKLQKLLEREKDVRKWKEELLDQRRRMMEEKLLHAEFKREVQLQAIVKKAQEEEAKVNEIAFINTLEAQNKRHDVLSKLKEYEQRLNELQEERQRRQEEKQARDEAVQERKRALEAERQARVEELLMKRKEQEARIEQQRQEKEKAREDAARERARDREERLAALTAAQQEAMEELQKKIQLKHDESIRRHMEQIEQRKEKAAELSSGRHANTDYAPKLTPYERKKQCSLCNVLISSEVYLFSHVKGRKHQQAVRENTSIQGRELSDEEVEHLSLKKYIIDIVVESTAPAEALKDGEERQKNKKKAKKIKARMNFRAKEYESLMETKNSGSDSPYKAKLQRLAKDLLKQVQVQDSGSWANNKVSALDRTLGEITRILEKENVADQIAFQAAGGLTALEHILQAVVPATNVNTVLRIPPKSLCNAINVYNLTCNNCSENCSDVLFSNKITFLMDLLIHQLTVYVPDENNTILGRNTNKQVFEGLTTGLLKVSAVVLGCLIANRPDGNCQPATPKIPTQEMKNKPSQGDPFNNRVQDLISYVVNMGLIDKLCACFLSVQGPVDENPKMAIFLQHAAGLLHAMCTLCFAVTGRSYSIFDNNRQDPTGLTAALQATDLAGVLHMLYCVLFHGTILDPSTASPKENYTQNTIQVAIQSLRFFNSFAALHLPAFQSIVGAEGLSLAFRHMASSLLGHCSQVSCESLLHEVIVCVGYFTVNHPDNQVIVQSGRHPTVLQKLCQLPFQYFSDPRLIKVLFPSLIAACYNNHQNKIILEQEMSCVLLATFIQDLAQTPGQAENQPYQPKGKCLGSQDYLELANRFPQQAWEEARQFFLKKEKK

Sequences of proteins named here, by UniProt entry; tags and fusion partners are left off. A change or cut given only in a name is not applied to a line headed by its entry.
UniProt Q15583: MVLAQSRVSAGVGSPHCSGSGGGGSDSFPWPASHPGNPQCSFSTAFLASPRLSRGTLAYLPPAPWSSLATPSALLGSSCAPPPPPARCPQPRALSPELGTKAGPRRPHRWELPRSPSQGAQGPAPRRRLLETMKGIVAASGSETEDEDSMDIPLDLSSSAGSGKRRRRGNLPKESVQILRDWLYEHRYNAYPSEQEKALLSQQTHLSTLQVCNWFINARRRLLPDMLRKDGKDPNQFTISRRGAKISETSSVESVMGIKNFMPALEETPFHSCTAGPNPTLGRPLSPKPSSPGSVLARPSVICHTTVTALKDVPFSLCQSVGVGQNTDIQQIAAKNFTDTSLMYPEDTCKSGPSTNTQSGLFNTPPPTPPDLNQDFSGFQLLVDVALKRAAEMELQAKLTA
UniProt O00716: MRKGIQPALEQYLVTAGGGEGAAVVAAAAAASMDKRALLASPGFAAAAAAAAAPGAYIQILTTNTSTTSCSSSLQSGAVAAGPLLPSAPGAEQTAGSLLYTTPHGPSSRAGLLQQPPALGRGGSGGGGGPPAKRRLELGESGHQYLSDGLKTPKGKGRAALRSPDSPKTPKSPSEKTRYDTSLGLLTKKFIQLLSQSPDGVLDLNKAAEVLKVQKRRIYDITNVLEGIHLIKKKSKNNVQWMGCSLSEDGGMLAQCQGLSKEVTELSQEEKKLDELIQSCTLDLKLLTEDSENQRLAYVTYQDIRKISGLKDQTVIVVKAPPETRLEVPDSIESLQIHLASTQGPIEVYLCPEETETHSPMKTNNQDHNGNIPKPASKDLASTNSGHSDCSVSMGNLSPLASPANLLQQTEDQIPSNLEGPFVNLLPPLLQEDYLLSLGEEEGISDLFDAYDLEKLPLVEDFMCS
UniProt P20719: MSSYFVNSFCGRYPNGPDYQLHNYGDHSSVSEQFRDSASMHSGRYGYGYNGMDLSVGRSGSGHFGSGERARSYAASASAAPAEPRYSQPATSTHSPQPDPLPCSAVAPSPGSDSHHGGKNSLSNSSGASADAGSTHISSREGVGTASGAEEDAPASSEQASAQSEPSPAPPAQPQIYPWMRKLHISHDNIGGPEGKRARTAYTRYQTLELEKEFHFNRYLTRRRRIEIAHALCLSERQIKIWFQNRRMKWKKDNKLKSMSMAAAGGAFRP
UniProt Q8NC26: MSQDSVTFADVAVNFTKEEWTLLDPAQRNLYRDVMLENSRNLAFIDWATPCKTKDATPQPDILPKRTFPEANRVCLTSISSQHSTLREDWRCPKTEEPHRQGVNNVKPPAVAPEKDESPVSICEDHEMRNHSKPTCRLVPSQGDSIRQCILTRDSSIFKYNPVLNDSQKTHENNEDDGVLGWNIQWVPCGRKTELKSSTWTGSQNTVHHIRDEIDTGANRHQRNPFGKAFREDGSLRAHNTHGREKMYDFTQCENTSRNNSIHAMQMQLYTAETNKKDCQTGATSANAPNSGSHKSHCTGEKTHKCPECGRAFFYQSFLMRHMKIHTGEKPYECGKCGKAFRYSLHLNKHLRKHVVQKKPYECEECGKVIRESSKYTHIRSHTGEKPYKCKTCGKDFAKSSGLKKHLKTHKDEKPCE
UniProt P19793: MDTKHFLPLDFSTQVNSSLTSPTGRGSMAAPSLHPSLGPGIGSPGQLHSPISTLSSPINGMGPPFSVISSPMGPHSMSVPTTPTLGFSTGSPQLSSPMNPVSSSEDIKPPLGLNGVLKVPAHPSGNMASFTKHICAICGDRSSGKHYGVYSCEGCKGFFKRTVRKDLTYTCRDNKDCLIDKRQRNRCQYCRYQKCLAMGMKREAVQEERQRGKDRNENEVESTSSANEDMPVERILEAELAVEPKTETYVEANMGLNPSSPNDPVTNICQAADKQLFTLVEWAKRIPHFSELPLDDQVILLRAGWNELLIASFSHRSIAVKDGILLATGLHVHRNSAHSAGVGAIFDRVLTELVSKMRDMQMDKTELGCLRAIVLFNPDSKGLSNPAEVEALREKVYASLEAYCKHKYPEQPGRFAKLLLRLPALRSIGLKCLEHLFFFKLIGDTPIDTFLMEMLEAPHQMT
UniProt Q9BWM5: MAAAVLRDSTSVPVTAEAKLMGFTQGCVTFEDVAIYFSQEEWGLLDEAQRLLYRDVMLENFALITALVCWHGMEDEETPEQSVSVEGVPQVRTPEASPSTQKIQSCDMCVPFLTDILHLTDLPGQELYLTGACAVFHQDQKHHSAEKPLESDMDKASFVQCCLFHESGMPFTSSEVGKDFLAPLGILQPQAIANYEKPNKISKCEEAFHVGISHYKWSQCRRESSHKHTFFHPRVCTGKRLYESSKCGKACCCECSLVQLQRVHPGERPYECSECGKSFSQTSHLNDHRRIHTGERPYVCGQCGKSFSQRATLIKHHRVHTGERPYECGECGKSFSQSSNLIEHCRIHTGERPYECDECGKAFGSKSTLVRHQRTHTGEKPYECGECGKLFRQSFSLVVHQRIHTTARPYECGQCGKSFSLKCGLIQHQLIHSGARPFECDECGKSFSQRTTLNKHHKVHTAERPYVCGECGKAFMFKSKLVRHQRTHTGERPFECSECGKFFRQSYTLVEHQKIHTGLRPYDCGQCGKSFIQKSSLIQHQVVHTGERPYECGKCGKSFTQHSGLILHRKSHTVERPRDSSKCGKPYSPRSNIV
UniProt P43694: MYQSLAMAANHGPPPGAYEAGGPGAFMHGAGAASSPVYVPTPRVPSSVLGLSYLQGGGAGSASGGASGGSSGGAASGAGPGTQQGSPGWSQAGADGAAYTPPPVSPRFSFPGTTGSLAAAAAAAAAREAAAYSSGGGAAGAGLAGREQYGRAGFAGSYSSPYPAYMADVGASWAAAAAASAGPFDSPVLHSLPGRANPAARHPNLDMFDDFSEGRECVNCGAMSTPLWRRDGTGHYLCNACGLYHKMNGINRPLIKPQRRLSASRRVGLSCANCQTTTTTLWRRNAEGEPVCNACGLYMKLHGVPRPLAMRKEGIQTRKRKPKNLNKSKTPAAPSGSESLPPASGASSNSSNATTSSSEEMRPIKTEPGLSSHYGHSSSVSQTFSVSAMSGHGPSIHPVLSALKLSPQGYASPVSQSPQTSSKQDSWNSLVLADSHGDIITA
UniProt Q8IW36: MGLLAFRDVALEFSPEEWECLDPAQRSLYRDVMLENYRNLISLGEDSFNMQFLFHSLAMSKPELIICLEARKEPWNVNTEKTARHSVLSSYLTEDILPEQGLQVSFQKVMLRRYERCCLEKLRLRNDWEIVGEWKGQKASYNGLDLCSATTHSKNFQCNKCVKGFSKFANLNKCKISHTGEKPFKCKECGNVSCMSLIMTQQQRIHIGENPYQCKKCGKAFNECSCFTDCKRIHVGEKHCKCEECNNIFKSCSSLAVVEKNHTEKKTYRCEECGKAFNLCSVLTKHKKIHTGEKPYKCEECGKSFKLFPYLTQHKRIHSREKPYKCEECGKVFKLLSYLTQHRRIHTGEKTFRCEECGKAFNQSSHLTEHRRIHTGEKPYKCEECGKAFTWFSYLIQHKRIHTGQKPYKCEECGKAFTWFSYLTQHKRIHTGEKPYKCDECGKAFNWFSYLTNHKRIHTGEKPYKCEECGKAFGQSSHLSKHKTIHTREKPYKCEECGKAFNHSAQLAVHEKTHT
UniProt Q9Y2L8: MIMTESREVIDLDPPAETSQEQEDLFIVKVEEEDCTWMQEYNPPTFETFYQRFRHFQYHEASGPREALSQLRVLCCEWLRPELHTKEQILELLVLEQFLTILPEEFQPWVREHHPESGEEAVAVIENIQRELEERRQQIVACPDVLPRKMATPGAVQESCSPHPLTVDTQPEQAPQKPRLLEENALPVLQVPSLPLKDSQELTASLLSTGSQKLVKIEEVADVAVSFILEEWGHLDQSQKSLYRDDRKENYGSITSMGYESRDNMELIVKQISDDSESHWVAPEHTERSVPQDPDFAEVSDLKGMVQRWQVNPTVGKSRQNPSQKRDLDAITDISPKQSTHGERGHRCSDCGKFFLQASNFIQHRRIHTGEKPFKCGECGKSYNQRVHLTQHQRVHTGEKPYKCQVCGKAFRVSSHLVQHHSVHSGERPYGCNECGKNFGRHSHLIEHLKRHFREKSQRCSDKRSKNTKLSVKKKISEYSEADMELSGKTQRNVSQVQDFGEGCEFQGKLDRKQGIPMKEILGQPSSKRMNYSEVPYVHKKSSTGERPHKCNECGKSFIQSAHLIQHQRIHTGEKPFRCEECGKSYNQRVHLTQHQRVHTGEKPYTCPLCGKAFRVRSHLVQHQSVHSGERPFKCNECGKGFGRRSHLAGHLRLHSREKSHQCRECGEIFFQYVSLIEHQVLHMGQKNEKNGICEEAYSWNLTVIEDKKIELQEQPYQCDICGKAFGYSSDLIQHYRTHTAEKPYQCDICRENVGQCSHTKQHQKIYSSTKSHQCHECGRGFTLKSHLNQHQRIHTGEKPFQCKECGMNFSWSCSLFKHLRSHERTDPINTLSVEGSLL
UniProt P37231: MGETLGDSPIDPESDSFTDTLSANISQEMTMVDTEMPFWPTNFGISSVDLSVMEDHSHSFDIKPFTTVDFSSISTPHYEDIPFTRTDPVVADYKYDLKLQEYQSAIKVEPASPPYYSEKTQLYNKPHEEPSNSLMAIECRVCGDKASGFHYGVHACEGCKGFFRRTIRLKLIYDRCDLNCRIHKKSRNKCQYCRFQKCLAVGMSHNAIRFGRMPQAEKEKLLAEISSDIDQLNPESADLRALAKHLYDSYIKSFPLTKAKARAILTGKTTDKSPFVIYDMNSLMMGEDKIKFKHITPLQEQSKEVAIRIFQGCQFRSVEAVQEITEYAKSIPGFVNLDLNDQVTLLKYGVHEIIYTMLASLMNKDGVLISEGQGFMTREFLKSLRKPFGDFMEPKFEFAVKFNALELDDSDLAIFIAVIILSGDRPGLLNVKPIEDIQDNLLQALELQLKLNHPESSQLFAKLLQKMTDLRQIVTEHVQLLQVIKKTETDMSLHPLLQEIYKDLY
UniProt P05549: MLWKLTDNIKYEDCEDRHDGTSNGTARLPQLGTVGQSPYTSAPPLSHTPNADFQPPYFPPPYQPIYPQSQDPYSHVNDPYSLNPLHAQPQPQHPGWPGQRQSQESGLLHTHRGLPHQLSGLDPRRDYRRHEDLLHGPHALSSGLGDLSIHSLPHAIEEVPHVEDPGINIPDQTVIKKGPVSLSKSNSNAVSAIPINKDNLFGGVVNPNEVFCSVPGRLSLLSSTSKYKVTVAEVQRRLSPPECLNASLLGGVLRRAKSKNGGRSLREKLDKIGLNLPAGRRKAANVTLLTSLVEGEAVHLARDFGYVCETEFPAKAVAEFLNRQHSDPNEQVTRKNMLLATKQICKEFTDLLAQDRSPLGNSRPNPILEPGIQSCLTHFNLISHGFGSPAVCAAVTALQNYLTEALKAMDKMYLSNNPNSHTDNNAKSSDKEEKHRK

RXRA (Homo sapiens) = RXRA (Homo sapiens) (UniProt P19793)
ZNF416 (Homo sapiens) = ZNF416 (Homo sapiens) (UniProt Q9BWM5)
RNF138 (Homo sapiens) = target: T2, RNF138 (Homo sapiens) (UniProt Q8WVD3)
T2 sequence (looked up, limits assumed): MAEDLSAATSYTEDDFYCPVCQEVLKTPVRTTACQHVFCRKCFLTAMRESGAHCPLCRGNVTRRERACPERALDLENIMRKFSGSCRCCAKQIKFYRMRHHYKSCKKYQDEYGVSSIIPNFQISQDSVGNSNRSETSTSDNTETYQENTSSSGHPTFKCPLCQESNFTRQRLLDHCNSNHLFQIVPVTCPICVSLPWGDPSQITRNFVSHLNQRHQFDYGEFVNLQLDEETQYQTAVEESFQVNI

GATA4 (Homo sapiens) = GATA4 (Homo sapiens) (UniProt P43694)
ZNF695 (Homo sapiens) = ZNF695 (Homo sapiens) (UniProt Q8IW36)
ZKSCAN5 (Homo sapiens) = ZKSCAN5 (Homo sapiens) (UniProt Q9Y2L8)
PPARG (Homo sapiens) = PPARG (Homo sapiens) (UniProt P37231)
TFAP2A (Homo sapiens) = TFAP2A (Homo sapiens) (UniProt P05549)
ZCCHC7 (Homo sapiens) = target: T3, ZCCHC7 (Homo sapiens) (UniProt Q8N3Z6)
T3 sequence (looked up, limits assumed): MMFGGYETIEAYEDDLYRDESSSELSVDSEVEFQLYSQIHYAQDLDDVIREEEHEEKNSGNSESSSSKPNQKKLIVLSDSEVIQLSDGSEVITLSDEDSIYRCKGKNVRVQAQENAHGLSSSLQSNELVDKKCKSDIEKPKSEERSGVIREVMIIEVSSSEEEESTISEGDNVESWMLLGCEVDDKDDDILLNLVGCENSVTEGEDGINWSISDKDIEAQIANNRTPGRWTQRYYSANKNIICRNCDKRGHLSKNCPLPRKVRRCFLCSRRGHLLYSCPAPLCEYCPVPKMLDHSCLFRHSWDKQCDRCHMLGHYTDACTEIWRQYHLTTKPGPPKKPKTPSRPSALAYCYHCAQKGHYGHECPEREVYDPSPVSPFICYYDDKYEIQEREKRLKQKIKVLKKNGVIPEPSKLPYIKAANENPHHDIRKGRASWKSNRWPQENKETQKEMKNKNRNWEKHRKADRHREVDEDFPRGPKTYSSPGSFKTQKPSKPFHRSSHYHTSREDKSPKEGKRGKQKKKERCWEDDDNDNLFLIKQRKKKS

Measured: binding result

GCTCGGTATTTGCTCGGTACCCTATAGTGAGTGCTATTA (double strand) [M453]
not listed: ZNF695 (Homo sapiens) | ZKSCAN5 (Homo sapiens) | PPARG (Homo sapiens) | TFAP2A (Homo sapiens) | ZCCHC7 (Homo sapiens)
binds: all other assays above

GTCGTCGGCTTTGTCGTCGGCCCCTATAGTGAGTGCTATTA (double strand) [M400]
binds: TGIF1 (Homo sapiens) | HOXA5 (Homo sapiens) | ZNF114 (Homo sapiens) | SCAPER (Homo sapiens) | ZNF416 (Homo sapiens) | RNF138 (Homo sapiens)

GCAACGGAGAAAGCAACGGAGCCCTATAGTGAGTGCTATTA (double strand) [M271]
binds: ZNF695 (Homo sapiens) | ZKSCAN5 (Homo sapiens) | ZNF114 (Homo sapiens) | PPARG (Homo sapiens) | ZNF416 (Homo sapiens) | GATA4 (Homo sapiens) | TFAP2A (Homo sapiens)

CGCCTGCGGAAAACGCCTGCGGACCCTATAGTGAGTGCTATTA (double strand) [M28]
binds: TGIF1 (Homo sapiens) | HOXA5 (Homo sapiens)

CGTTTCCGTTTCGTTTCCGCCCTATAGTGAGTGCTATTA (double strand) [M328]
binds: TGIF1 (Homo sapiens) | ZNF114 (Homo sapiens)

CGCATGCGCAAACGCATGCGCCCCTATAGTGAGTGCTATTA (double strand) [M62]
binds: TGIF1 (Homo sapiens) | ZNF114 (Homo sapiens) | SCAPER (Homo sapiens)

GCAACGTGTTTTGCAACGTGTCCCTATAGTGAGTGCTATTA (double strand) [M392]
binds: TGIF1 (Homo sapiens) | ZNF695 (Homo sapiens) | ZNF114 (Homo sapiens) | ZNF416 (Homo sapiens)

CACGTGAAACACGTGCCCTATAGTGAGTGCTATTA (double strand) [M35]
not listed: RXRA (Homo sapiens) | ZKSCAN5 (Homo sapiens) | PPARG (Homo sapiens) | TFAP2A (Homo sapiens)
binds: all other assays above

AGCGGATAGTTTAGCGGATAGCCCTATAGTGAGTGCTATTA (double strand) [M403]
not listed: ZKSCAN5 (Homo sapiens) | TFAP2A (Homo sapiens)
binds: all other assays above

CCCGTACTGAAACCCGTACTGCCCTATAGTGAGTGCTATTA (double strand) [M262]
binds: E2F3 (Homo sapiens) | ZNF695 (Homo sapiens) | ZKSCAN5 (Homo sapiens) | ZNF114 (Homo sapiens) | SCAPER (Homo sapiens) | PPARG (Homo sapiens) | ZNF416 (Homo sapiens) | TFAP2A (Homo sapiens)
